According to article PMC9476698:
No constants are given. Whether binding was seen depends on the method and setting. Binding seen in cells or lysates may run through a third protein. Some binding calls cover weakened binding; strength is not graded here.

Amino acid sequences for entries named in this document (tags omitted).
UniProt Q13838: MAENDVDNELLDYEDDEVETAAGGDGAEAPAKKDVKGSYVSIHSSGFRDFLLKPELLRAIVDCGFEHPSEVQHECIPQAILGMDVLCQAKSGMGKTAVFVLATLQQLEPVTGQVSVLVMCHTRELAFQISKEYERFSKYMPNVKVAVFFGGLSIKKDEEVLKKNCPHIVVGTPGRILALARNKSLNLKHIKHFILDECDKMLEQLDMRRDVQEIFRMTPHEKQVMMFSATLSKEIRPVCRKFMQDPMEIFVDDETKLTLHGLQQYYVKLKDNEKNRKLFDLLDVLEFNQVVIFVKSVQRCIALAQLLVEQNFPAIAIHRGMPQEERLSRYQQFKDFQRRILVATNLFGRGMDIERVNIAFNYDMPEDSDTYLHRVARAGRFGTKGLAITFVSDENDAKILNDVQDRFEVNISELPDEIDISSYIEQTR

Biological target: T1, RETSAT (Retinol Saturase; all trans retinol 13,14 reductase) (human (endogenous in PANC-1)) (UniProt Q6NUM9)
T1 sequence: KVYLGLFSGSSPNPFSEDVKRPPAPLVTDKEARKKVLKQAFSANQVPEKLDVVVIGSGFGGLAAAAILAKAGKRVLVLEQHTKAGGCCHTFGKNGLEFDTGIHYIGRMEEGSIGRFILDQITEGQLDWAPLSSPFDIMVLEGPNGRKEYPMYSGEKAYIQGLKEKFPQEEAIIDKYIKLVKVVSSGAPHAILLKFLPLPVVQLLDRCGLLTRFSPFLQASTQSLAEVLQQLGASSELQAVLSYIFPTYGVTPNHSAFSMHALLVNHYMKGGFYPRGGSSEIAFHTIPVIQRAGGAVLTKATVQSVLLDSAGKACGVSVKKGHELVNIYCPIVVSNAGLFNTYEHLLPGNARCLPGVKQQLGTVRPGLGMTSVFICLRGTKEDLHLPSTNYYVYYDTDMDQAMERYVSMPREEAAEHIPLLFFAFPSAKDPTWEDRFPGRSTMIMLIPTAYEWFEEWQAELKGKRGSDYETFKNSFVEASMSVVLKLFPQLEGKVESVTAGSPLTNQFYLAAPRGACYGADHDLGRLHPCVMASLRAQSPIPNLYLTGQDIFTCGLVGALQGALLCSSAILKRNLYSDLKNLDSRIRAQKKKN
Experiment: co-IP; anti-RETSAT antibody overnight, protein A/G agarose; PANC-1 nuclear protein lysate in RIPA buffer, digested with 10 units/mL DNase I; isotype IgG as negative control; cells under vehicle, gemcitabine treatment or severe hypoxia; immunoblotting

With “DDX39B (also named as UAP56 or BAT1) (from UniProt Q13838 1-428)” the binding was “binds”.
